Assay results reported in patent US20200216499A1 (WAKE FOREST UNIVERSITY HEALTH SCIENCES, priority 2015, published 2020).

Assay: general procedure: Fmoc solid-phase peptide synthesis; proline pre-loaded 2CT resin; HATU/DIEA
Details: whole synthesis
With H-Asp-Arg-ACCA-Tyr-Ile-His-Pro-OH the isolated yield was “yield = 63%”.
In the case of H-Asp-Arg-Val-Tyr-ACCA-His-Pro-OH, the isolated yield is reported as “yield = 64%”.
In the case of H-Asp-Arg-Val-Tyr-Ile-ACCA-Pro-OH, the isolated yield is reported as “yield = 46%”.
